Data reported in patent US20130272958A1 (NATIONAL RESEARCH COUNCIL OF CANADA, published 2013).
No constants are given. Whether binding was seen depends on the method and setting. Some entries that bind do so weakly or less than the wild type. Tags and fused reporters may be left off the sequences shown.

The chains behind the UniProt entries cited, without tags or fusion partners. Where a name states a change or a piece, a line headed by the entry shows the natural chain unless it says otherwise.
UniProt P40199: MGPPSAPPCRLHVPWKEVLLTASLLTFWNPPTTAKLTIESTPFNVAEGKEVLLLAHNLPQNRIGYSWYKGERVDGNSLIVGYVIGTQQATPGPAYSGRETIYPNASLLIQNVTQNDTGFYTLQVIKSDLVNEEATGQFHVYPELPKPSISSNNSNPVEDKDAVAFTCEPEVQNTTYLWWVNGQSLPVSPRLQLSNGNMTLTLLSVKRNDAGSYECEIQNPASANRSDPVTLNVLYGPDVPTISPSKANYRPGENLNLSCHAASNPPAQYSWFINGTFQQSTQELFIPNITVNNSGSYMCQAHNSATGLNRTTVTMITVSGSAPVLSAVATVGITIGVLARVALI

Experiments:
[1] = target: recombinant CEACAM6 N-terminal domain (expressed in E. coli) (Homo sapiens (Human)) (UniProt P40199); test: phage ELISA, phage-displayed 2A3 on coated CEACAM6
[2] = target: mammalian cell expressed recombinant CEACAM6 (Homo sapiens (Human)) (UniProt P40199); test: Western blot on mammalian-expressed recombinant CEACAM6
[3] = target: recombinant CEACAM6 N-terminal domain (expressed in E. coli) (Homo sapiens (Human)) (UniProt P40199); test: SPR (Biacore 3000), CEACAM6 immobilised on CM5, ovalbumin reference
[4] = target: recombinant CEACAM6 N-terminal domain (expressed in E. coli) (Homo sapiens (Human)) (UniProt P40199); test: ELISA on coated CEACAM6 N-domain after 24 hr in mouse serum at 37° C.

Measured: binding

B1: sdAb 2A3 (engineered, with c-myc and His tags) (VHH)
VHH: QVKLEESGGGLVQAGGSLRLSCRTSGRTNSVYTMGWFRQAPGKEREFVAQIMWGAGTNTHYADSVKGRFTISRDSAESTVYLQMNSLKPEDTAVYYCAANRGIPIAGRQYDYWGQGTQVTVSS
modifications: FITC-labelled in the staining and flow cytometry assays
notes: Llama VHH expressed in the E. coli periplasm and purified by IMAC; monomer by size exclusion; also called 2A3 sdAb; FITC-2A3
binds: all assays above
